Source: PubChem BioAssay AID504774 (Drosophila RNAi Screening Center, 2011)

- Aim: 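Fly genes whose loss alters survival after alkylation damage to DNA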 (primary screen)
- Cells: Drosophila Kc167 cells
- Knock-down reagent: long dsRNA against Drosophila genes, about 0.25 µg dsRNA per well
- Timing: about 6 days: 3 days knock-down, then 3 days with or without MMS
- Treatment: methyl methanesulphonate 0.004% (w/v) for 3 days after knock-down
- Detection: 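ATP-dependent luminescence as a measure of live cells in MMS-exposed wells, quantile normalised within each plate, with replicate values also given as a mean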
- Scale: mean viability with MMS and viability with MMS: higher = more surviving cells after MMS
In all, the deposit lists about 23,000 reagents; this is a random part of those that have a named target and a result. 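Values are quantile-normalised luminescence on an arbitrary scale; higher means more cells surviving MMS.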 Reagents against one gene are numbered here. Names joined by + are all predicted targets of the reagent.

The opening 8 records as a preview:
| predicted target | reagent no. | mean viability with MMS | viability with MMS, replicate 1 | viability with MMS, replicate 2 |
| --- | --- | --- | --- | --- |
| Idh (Isocitrate dehydrogenase) | 1 | 3.56e6 | 3.95e6 | 4.12e6 |
| CG14877 | 1 | 3.62e6 | 4.10e6 | 4.15e6 |
| CSN5 (COP9 signalosome subunit 5) | 1 | 3.51e6 | 3.85e6 | 4.13e6 |
| CSN5 (COP9 signalosome subunit 5) | 2 | 3.42e6 | 3.79e6 | 4.04e6 |
| Bbd (Bombardier) | 1 | 3.45e6 | 3.97e6 | 3.82e6 |
| Ir93a (Ionotropic receptor 93a) | 1 | 3.48e6 | 3.86e6 | 4.03e6 |
| Ir93a (Ionotropic receptor 93a) | 2 | 3.53e6 | 3.87e6 | 4.13e6 |
| CG13331 | 1 | 3.76e6 | 4.11e6 | 4.09e6 |

The list itself, from the start:
| predicted target | reagent no. | mean viability with MMS | viability with MMS, replicate 1 | viability with MMS, replicate 2 |
| --- | --- | --- | --- | --- |
| Idh (Isocitrate dehydrogenase) | 1 | 3.56e6 | 3.95e6 | 4.12e6 |
| CG14877 | 1 | 3.62e6 | 4.10e6 | 4.15e6 |
| CSN5 (COP9 signalosome subunit 5) | 1 | 3.51e6 | 3.85e6 | 4.13e6 |
| CSN5 (COP9 signalosome subunit 5) | 2 | 3.42e6 | 3.79e6 | 4.04e6 |
| Bbd (Bombardier) | 1 | 3.45e6 | 3.97e6 | 3.82e6 |
| Ir93a (Ionotropic receptor 93a) | 1 | 3.48e6 | 3.86e6 | 4.03e6 |
| Ir93a (Ionotropic receptor 93a) | 2 | 3.53e6 | 3.87e6 | 4.13e6 |
| CG13331 | 1 | 3.76e6 | 4.11e6 | 4.09e6 |
| Oatp33Eb (Organic anion transporting polypeptide 33Eb) | 1 | 3.65e6 | 4.08e6 | 4.16e6 |
| Loxl1 (Lysyl oxidase-like 1) | 1 | 3.45e6 | 3.89e6 | 3.95e6 |
| OtopLb (Otopetrin-like b) | 1 | 3.30e6 | 3.62e6 | 3.71e6 |
| msl-3 (male-specific lethal 3) | 1 | 3.68e6 | 4.28e6 | 4.08e6 |
| CG9029 | 1 | 3.61e6 | 4.05e6 | 4.09e6 |
| hmw (hemingway) | 1 | 3.78e6 | 4.34e6 | 4.15e6 |
| CG17821 | 1 | 3.51e6 | 3.99e6 | 3.95e6 |
| MFS3 (Major Facilitator Superfamily Transporter 3) | 1 | 3.64e6 | 4.18e6 | 4.12e6 |
| sty (sprouty) | 1 | 3.63e6 | 4.00e6 | 4.18e6 |
| sty (sprouty) | 2 | 3.42e6 | 3.77e6 | 4.01e6 |
| GluRIIC (Glutamate receptor IIC) | 1 | 3.67e6 | 4.12e6 | 4.23e6 |
| crim (crimpled) | 1 | 3.57e6 | 4.04e6 | 4.06e6 |
| Dap160 (Dynamin associated protein 160) | 1 | 3.68e6 | 4.42e6 | 4.07e6 |
| CheA29a (Chemosensory protein A 29a) | 1 | 3.67e6 | 4.18e6 | 4.10e6 |
| Hdc (Histidine decarboxylase) | 1 | 3.62e6 | 4.17e6 | 4.06e6 |
| kud (kuduk) | 1 | 3.54e6 | 4.01e6 | 4.02e6 |
| Hsp70Aa + Hsp70Ab | 1 | 3.34e6 | 3.78e6 | 3.79e6 |
| Ir56c (Ionotropic receptor 56c) | 1 | 3.72e6 | 4.06e6 | 4.33e6 |
| Cpr62Ba (Cuticular protein 62Ba) | 1 | 3.63e6 | 4.16e6 | 4.03e6 |
| ZnT41F (Zinc transporter 41F) | 1 | 3.44e6 | 3.98e6 | 3.98e6 |
| Klp98A (Kinesin-like protein at 98A) | 1 | 3.48e6 | 3.98e6 | 3.88e6 |
| Klp98A (Kinesin-like protein at 98A) | 2 | 3.09e6 | 3.73e6 | 3.68e6 |
| Ahcy (Adenosylhomocysteinase) | 1 | 3.46e6 | 3.83e6 | 4.10e6 |
| CG34198 | 1 | 3.41e6 | 3.90e6 | 3.85e6 |
| CG12590 | 1 | 3.48e6 | 3.96e6 | 3.95e6 |
| ValRS (Valyl-tRNA synthetase) | 1 | 3.06e6 | 3.65e6 | 3.62e6 |
| ara (araucan) | 1 | 2.93e6 | 3.45e6 | 3.47e6 |
| ara (araucan) | 2 | 3.53e6 | 4.03e6 | 4.01e6 |
| TwdlO (TweedleO) | 1 | 3.52e6 | 3.76e6 | 4.20e6 |
| CG32106 | 1 | 3.62e6 | 4.11e6 | 4.10e6 |
| CG17059 | 1 | 3.62e6 | 4.04e6 | 4.13e6 |
| CG31259 | 1 | 3.58e6 | 4.05e6 | 4.07e6 |
| nuf (nuclear fallout) | 1 | 3.57e6 | 4.12e6 | 3.99e6 |
| nuf (nuclear fallout) | 2 | 3.11e6 | 3.76e6 | 3.74e6 |
| nuf (nuclear fallout) | 3 | 3.76e6 | 4.20e6 | 4.31e6 |
| CR15821 (pseudo) | 1 | 3.60e6 | 4.02e6 | 4.13e6 |
| Mtk (Metchnikowin) | 1 | 3.55e6 | 4.00e6 | 3.90e6 |
| CG31663 | 1 | 3.57e6 | 4.04e6 | 4.07e6 |
| CG31663 | 2 | 3.73e6 | 4.36e6 | 4.16e6 |
| CG31663 | 3 | 1.86e6 | 4.21e6 | – |
| CG31663 | 4 | 3.52e6 | 3.97e6 | 4.02e6 |
| stl (stall) | 1 | 3.49e6 | 3.94e6 | 4.09e6 |
| FucTA (alpha1,3-fucosyltransferase A) | 1 | 3.53e6 | 4.03e6 | 3.97e6 |
| Nt5b (5' nucleotidase B) | 1 | 3.81e6 | 4.44e6 | 4.25e6 |
| Nt5b (5' nucleotidase B) | 2 | 3.53e6 | 3.92e6 | 4.10e6 |
| Nt5b (5' nucleotidase B) | 3 | 3.49e6 | 3.94e6 | 3.97e6 |
| Nt5b (5' nucleotidase B) | 4 | 3.74e6 | 4.27e6 | 4.08e6 |
| Cul3 (Cullin 3) | 1 | 3.57e6 | 3.96e6 | 4.17e6 |
| Cul3 (Cullin 3) | 2 | 3.51e6 | 4.11e6 | 3.89e6 |
| Uhg2 + snoRNA:Me18S-G1620 + snoRNA:U14:30Ea | 1 | 3.44e6 | 3.99e6 | 3.79e6 |
| betaNACtes2 (Nascent-associated complex beta-subunit-like, testis 2) | 1 | 3.67e6 | 4.17e6 | 4.09e6 |
| UBL3 (Ubiquitin like 3) | 1 | 3.60e6 | 4.12e6 | 4.03e6 |
| UBL3 (Ubiquitin like 3) | 2 | 3.74e6 | 4.20e6 | 4.27e6 |
| CG14190 | 1 | 3.66e6 | 4.16e6 | 4.07e6 |
| CG15721 | 1 | 3.69e6 | 4.23e6 | 4.08e6 |
| CG9154 | 1 | 3.73e6 | 4.30e6 | 4.19e6 |
| FASN1 (Fatty acid synthase 1) | 1 | 3.41e6 | 3.61e6 | 4.02e6 |
| HP1b (Heterochromatin Protein 1b) | 1 | 3.46e6 | 3.91e6 | 3.91e6 |
| Ipp (Inositol polyphosphate 1-phosphatase) | 1 | 3.53e6 | 3.64e6 | 4.37e6 |
| brm (brahma) | 1 | 3.33e6 | 3.75e6 | 3.75e6 |
| Rab11 | 1 | 3.38e6 | 3.92e6 | 3.79e6 |
| CG34243 (retired record) | 1 | 3.50e6 | 3.95e6 | 4.00e6 |
| CG34243 (retired record) | 2 | 3.67e6 | 4.10e6 | 4.21e6 |
| CG7849 | 1 | 3.45e6 | 4.01e6 | 3.80e6 |
| CG6041 | 1 | 3.83e6 | 4.68e6 | 4.04e6 |
| 5PtaseI (Inositol polyphosphate-5-phosphatase type I) | 1 | 3.33e6 | 3.73e6 | 3.84e6 |
| 5PtaseI (Inositol polyphosphate-5-phosphatase type I) | 2 | 3.62e6 | 4.12e6 | 4.03e6 |
| CG13724 | 1 | 3.30e6 | 3.67e6 | 3.74e6 |
| Tsp42Eg (Tetraspanin 42Eg) | 1 | 3.66e6 | 4.02e6 | 4.25e6 |
| Prp38 (pre-mRNA processing factor 38) | 1 | 3.27e6 | 3.69e6 | 3.75e6 |
| Rsph4a (Radial spoke head protein 4a) | 1 | 3.46e6 | 4.36e6 | 3.92e6 |
| CG4338 | 1 | 3.41e6 | 3.82e6 | 3.87e6 |
| bin3 (bicoid-interacting protein 3) | 1 | 3.30e6 | 3.71e6 | 3.64e6 |
| CG1136 | 1 | 3.65e6 | 4.14e6 | 4.15e6 |
| Cyt-b5-r (Cytochrome b5-related) | 1 | 3.44e6 | 3.94e6 | 3.88e6 |
| GstZ2 (Glutathione S transferase Z2) | 1 | 3.58e6 | 4.09e6 | 4.07e6 |
| Brca2 (BRCA2, DNA repair associated) | 1 | 3.52e6 | 3.99e6 | 3.99e6 |
| Brca2 (BRCA2, DNA repair associated) | 2 | 3.58e6 | 4.09e6 | 4.03e6 |
| Or19a (Odorant receptor 19a) | 1 | 3.53e6 | 3.95e6 | 4.07e6 |
